From PMC8274477
Results are given in words; binding and its absence hold for the method and conditions named. Some entries that bind do so weakly or less than the wild type.

Amino acid sequences for entries named in this document (tags omitted).
UniProt Q9H361: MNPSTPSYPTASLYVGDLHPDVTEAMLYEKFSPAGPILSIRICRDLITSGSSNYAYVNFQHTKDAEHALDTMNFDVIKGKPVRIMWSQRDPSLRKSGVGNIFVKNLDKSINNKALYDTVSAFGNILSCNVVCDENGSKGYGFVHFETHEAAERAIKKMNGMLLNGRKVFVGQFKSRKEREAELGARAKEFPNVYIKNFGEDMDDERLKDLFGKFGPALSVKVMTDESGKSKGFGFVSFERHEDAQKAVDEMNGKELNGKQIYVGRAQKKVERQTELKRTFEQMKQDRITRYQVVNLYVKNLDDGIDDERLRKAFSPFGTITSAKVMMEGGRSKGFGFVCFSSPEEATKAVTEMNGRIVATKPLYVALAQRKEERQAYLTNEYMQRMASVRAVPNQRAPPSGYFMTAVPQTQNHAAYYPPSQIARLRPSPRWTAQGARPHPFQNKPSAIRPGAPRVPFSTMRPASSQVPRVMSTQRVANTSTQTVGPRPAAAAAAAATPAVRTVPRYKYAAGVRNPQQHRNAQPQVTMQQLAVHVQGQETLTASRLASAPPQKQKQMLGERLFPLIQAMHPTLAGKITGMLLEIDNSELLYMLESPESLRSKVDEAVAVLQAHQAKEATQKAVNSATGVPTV

Legend:
Assay in all cases: peptide or protein array; HuProt human proteome microarray; 5 ug/5 ml biotin-labelled LUBAC or OTULIN in solution, 1 h at room temperature; Cy5-streptavidin, scanned at 635 nm; BSA as negative control; hits: Z-score >= 3 and I_(Mean_Ratio) >= 1.4; both purified
[1] = target: T1, ALKBH3 (human) (UniProt Q96Q83)
T1 sequence: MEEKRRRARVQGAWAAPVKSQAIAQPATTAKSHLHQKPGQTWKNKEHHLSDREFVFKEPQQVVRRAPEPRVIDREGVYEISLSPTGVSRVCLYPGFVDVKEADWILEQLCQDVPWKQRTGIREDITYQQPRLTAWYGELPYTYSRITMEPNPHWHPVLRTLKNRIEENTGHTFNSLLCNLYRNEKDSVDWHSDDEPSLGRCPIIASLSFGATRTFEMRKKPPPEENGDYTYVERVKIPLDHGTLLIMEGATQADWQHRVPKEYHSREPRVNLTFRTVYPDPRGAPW

[2] = target: PABPC3 (human) (UniProt Q9H361)
[3] = target: T2, MBNL3 (human) (UniProt Q9NUK0)
T2 sequence: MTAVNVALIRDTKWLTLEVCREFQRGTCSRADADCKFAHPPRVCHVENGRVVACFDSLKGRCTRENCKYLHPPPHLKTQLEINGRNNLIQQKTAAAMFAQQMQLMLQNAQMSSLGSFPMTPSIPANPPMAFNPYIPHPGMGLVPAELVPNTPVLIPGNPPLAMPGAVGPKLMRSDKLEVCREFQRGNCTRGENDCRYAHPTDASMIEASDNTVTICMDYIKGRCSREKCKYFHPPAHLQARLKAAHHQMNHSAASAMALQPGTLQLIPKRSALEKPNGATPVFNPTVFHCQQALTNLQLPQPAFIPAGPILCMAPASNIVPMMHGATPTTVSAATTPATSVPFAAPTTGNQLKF

[4] = target: T3, ALDH4A1 (human) (UniProt P30038)
T3 sequence: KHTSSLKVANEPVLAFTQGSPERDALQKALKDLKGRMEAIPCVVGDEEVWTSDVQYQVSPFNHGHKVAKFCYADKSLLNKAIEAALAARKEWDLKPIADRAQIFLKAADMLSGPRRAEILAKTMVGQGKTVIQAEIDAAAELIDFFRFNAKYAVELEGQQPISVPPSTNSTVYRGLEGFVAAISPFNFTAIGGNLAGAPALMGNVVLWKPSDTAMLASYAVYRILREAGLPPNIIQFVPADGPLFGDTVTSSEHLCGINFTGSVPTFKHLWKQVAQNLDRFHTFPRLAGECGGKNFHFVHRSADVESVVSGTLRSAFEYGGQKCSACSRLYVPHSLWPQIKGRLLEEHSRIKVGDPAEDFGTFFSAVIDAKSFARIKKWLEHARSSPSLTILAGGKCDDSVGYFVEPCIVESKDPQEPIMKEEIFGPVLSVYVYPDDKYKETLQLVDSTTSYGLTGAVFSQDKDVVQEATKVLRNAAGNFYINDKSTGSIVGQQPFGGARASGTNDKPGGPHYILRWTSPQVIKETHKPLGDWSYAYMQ

[5] = target: T4, VAT1 (human) (UniProt Q99536)
T4 sequence: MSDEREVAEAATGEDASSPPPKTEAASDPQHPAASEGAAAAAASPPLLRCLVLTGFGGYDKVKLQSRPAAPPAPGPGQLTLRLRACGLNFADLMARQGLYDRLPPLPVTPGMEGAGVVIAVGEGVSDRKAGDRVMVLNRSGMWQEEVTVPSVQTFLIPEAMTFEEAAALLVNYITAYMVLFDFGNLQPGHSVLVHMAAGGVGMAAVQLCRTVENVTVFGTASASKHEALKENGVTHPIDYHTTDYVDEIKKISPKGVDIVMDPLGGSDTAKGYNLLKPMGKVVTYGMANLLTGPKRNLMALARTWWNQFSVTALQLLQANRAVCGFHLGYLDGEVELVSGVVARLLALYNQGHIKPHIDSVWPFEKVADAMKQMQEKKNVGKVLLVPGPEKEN

[6] = target: T5, CSTF2T (human) (UniProt Q9H0L4)
T5 sequence: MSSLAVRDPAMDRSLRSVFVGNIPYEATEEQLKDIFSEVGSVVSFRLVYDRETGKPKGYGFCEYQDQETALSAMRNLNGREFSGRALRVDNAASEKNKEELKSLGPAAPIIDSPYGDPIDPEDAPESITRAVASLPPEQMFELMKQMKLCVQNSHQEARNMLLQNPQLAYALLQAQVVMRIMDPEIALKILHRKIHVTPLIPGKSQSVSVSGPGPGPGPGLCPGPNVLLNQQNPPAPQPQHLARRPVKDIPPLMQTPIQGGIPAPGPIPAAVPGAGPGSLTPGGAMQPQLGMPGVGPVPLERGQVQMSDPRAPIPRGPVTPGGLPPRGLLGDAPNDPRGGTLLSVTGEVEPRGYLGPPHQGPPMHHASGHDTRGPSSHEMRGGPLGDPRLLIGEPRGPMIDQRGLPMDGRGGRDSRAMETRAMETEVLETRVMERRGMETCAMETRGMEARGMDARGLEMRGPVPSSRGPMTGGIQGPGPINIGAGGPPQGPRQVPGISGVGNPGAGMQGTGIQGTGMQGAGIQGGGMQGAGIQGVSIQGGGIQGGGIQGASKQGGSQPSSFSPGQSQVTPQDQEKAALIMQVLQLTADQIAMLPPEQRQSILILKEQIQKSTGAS

Measured: binding

linear ubiquitin chain assembly complex (LUBAC), purified as HIS-tagged HOIP with the subunit HOIL-1, biotin-labelled (from UniProt Q96EP0 1-1072; Q9BYM8 1-510)
binds: all assays above
